Where a name gives a salt, the structure may show the parent alone. The list shows a part of the results. Hit calls seldom repeat between salt and free forms of one compound.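 Kinases, fused to nanoluciferase, were expressed in K562 cells; luminescence was measured every 4 h from 2 to 18 h as percent of control (DMSO = 100%, positive control = 0%). A time point is decreased if signal falls significantly (2 sigma). Hits were called by the authors by a rule that is not shown; the count of time points alone does not decide it.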
Legend:
Experiment in all cases: kinase-Nluc reporter destabilization hit call (1 = scored as downregulated) (binary); higher = compound decreases kinase abundance
Settings in all cases: K562, 2-18 h
[1] = biological target: CDK7 (UniProt P50613)
[2] = biological target: CDK9 (UniProt P50750)
[3] = biological target: CHEK2 (UniProt O96017)
[4] = biological target: CSF1R (UniProt P07333)
[5] = biological target: CSK (UniProt P41240)
[6] = biological target: CSNK1A1 (UniProt P48729)
[7] = biological target: CSNK1D (UniProt P48730)
[8] = biological target: DDR1 (UniProt Q08345)
[9] = biological target: DYRK1B (UniProt Q9Y463)
[10] = biological target: DYRK2 (UniProt Q92630)

Sequences of proteins named here, by UniProt entry; tags and fusion partners are left off. A change or cut given only in a name is not applied to a line headed by its entry.
UniProt P50613: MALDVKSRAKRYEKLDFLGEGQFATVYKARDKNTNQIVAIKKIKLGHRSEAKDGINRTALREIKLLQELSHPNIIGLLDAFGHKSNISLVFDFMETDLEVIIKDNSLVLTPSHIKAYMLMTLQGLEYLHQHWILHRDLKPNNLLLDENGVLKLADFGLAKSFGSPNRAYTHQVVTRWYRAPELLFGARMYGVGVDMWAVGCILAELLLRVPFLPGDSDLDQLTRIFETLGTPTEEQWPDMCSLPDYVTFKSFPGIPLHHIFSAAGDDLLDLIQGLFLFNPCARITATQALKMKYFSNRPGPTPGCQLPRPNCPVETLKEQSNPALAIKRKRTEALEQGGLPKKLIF
UniProt P50750, whole entry: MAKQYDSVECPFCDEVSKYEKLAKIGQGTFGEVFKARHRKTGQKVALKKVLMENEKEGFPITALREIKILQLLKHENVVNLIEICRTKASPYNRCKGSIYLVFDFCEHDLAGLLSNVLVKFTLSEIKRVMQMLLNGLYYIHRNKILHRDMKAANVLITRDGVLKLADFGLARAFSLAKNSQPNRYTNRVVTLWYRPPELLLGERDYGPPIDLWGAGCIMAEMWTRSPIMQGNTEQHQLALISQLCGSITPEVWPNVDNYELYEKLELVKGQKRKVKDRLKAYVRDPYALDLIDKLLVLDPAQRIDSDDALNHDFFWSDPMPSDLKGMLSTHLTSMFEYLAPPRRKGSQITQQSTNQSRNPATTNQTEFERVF
UniProt O96017, whole entry: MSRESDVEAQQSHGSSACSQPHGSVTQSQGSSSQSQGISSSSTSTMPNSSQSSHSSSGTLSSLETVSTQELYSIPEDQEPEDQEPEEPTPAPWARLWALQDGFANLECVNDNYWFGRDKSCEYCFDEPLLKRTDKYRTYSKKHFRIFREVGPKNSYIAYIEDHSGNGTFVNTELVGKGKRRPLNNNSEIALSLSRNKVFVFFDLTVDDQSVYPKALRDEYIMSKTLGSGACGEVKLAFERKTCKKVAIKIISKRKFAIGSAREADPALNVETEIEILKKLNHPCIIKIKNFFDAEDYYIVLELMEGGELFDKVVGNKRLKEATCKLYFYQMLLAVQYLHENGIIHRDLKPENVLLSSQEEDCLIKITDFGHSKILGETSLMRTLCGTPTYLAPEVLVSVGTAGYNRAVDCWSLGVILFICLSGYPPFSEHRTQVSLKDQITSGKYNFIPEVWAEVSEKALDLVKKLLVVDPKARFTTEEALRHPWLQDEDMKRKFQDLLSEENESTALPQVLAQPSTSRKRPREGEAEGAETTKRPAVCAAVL
UniProt P07333, whole entry: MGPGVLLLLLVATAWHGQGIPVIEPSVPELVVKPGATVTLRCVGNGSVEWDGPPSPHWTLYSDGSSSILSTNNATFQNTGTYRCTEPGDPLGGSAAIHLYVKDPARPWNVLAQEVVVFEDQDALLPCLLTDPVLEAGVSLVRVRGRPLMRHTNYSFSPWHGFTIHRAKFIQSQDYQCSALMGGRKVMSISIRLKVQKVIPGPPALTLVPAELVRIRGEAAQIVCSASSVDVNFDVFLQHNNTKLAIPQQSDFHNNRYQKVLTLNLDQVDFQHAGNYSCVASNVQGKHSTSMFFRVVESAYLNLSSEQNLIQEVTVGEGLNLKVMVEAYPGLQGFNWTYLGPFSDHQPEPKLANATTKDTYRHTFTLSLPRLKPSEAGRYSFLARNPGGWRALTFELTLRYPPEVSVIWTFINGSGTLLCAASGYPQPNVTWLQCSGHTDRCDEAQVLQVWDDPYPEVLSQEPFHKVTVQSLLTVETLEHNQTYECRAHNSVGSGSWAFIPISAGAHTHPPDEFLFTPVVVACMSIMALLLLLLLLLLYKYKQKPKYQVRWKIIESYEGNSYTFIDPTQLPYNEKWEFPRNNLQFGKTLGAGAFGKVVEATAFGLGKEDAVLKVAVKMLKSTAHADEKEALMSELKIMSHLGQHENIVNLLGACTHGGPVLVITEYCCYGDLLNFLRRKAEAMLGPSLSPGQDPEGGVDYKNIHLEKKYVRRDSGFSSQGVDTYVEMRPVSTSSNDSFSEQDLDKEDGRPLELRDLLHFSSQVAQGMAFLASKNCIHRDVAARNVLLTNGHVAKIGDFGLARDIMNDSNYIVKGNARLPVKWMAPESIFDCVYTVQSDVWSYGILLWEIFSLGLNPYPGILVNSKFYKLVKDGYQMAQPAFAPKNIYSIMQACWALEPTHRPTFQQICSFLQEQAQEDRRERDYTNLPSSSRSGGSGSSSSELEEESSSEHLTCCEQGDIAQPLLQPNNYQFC
UniProt P41240: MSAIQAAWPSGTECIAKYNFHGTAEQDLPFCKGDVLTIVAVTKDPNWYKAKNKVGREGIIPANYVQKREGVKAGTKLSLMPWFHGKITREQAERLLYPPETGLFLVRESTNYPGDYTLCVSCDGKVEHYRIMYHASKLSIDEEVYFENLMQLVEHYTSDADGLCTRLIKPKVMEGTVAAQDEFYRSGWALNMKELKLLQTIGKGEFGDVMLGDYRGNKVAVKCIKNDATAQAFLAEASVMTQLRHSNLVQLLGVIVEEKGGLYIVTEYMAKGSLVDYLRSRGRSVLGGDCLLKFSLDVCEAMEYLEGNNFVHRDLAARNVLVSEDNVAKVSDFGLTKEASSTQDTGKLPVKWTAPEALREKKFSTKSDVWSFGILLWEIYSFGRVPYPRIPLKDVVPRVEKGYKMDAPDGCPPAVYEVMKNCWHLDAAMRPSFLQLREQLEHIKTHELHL
UniProt P48729: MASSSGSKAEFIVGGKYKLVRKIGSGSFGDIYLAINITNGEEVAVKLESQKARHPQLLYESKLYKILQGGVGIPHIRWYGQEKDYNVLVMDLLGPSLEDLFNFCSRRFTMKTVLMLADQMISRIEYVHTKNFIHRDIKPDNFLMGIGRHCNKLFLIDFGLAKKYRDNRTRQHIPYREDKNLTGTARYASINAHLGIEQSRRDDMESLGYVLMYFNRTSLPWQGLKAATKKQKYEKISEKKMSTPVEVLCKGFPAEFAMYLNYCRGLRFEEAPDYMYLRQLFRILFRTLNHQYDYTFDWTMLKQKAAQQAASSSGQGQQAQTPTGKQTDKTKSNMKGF
UniProt P48730: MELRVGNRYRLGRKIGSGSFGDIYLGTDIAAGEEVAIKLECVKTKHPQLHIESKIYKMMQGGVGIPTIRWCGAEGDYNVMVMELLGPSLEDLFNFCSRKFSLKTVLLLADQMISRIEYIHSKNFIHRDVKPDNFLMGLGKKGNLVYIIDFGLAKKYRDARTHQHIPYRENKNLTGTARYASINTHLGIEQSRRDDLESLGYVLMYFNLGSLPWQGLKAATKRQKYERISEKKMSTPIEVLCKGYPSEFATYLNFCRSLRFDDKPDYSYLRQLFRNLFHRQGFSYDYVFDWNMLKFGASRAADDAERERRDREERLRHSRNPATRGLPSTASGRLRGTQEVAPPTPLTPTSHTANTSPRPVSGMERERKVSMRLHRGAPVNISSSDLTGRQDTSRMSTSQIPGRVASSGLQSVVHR
UniProt Q08345: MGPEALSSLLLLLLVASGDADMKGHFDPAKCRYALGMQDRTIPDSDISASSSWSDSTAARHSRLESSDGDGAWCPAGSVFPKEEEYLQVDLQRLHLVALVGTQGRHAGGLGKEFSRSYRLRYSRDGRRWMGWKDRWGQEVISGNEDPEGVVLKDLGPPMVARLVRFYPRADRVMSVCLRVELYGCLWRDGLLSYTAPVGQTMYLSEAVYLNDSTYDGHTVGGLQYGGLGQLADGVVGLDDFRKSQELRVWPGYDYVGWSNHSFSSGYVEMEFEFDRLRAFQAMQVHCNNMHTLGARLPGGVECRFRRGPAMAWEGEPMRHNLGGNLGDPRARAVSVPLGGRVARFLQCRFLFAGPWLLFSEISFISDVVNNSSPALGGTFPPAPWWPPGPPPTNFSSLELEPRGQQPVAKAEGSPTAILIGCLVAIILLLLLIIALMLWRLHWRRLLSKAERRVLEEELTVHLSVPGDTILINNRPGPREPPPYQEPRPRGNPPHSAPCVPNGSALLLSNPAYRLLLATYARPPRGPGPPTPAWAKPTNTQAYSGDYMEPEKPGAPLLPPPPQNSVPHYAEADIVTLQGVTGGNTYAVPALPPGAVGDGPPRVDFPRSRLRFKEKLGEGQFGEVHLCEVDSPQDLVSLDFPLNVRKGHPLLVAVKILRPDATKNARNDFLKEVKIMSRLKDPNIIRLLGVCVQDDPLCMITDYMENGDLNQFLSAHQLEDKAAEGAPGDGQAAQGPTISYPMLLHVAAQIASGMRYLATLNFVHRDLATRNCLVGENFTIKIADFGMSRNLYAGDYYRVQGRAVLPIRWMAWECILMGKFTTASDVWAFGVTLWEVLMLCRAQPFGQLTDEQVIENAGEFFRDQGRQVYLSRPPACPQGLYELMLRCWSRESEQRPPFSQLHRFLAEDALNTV
UniProt Q9Y463, whole entry, looked up: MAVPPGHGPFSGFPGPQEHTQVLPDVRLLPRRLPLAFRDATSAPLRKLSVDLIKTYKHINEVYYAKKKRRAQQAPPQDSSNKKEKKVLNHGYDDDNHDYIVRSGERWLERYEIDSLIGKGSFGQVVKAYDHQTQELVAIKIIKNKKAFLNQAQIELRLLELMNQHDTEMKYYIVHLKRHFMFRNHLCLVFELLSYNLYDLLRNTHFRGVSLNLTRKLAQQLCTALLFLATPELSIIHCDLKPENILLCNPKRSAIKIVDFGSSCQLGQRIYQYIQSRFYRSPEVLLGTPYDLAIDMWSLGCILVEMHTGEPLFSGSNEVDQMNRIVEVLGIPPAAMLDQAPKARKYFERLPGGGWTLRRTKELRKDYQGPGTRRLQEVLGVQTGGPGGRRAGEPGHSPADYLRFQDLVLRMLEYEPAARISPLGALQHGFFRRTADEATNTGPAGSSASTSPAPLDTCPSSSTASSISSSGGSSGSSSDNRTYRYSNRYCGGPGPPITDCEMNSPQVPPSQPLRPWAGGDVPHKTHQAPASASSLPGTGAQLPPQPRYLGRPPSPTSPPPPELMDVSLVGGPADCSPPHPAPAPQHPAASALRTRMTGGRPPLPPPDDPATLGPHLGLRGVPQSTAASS
UniProt Q92630: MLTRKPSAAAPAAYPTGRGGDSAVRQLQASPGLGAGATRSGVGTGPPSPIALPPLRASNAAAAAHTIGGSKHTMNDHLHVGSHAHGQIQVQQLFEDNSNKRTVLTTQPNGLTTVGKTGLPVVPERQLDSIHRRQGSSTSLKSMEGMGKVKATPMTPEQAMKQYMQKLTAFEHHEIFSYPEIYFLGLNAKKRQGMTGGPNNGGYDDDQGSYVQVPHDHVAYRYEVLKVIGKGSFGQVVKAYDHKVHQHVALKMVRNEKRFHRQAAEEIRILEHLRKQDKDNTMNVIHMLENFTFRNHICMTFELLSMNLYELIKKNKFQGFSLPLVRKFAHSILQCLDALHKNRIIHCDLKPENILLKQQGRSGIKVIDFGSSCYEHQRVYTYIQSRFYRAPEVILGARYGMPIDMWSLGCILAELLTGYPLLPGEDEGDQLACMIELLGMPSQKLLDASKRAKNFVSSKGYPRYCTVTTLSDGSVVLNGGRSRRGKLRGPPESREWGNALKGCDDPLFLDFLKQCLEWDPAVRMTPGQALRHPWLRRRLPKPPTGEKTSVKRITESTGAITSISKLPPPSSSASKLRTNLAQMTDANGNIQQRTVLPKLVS

Measured: kinase-Nluc reporter destabilization hit call

O=C(Nc1ccncc1)Nc1ccc(-c2nc(N3CCOCC3)nc(N3C4CCC3COC4)n2)cc1 [PKI-179 (hydrochloride)]
inactive: [1]; 2.5 µM 0 | [2]; 2.5 µM 0 | [3]; 2.5 µM 0 | [4]; 2.5 µM 0 | [5]; 2.5 µM 0 | [6]; 2.5 µM 0 | [7]; 2.5 µM 0 | [8]; 2.5 µM 0 | [9]; 2.5 µM 0 | [10]; 2.5 µM 0

CCN(CC)CC(=O)Nc1c(C)cccc1C [Lidocaine (hydrochloride)]
inactive: [1]; 10 µM 0 | [2]; 10 µM 0 | [3]; 10 µM 0 | [4]; 10 µM 0 | [5]; 10 µM 0 | [6]; 10 µM 0 | [7]; 10 µM 0 | [8]; 10 µM 0 | [9]; 10 µM 0 | [10]; 10 µM 0

C[C@@H](N)c1ccc(C(=O)Nc2ccnc3[nH]ccc23)cc1
inactive: [1]; 10 µM 0 | [2]; 10 µM 0 | [3]; 10 µM 0 | [4]; 10 µM 0 | [5]; 10 µM 0 | [6]; 10 µM 0 | [7]; 10 µM 0 | [8]; 10 µM 0 | [9]; 10 µM 0 | [10]; 10 µM 0

CCS(=O)(=O)N1CCN(c2ccc(Nc3ncc(C(N)=O)c(NC4CC4)n3)cc2)CC1 [Cerdulatinib]
active: [8]; 10 µM 1
inactive: [1]; 10 µM 0 | [2]; 10 µM 0 | [3]; 10 µM 0 | [4]; 10 µM 0 | [5]; 10 µM 0 | [6]; 10 µM 0 | [7]; 10 µM 0 | [9]; 10 µM 0 | [10]; 10 µM 0

O=C(c1nn(-c2ccc(CN3CCOCC3)cc2)c2c1CS(=O)(=O)c1c(F)cccc1-2)N1CCOCC1
inactive: [1]; 10 µM 0 | [2]; 10 µM 0 | [3]; 10 µM 0 | [4]; 10 µM 0 | [5]; 10 µM 0 | [6]; 10 µM 0 | [7]; 10 µM 0 | [8]; 10 µM 0 | [9]; 10 µM 0 | [10]; 10 µM 0

CC(C)NC[C@@H](C(=O)N1CCN(c2ncnc3c2[C@H](C)C[C@H]3O)CC1)c1ccc(Cl)cc1 [Ipatasertib (dihydrochloride)]
inactive: [1]; 10 µM 0 | [2]; 10 µM 0 | [3]; 10 µM 0 | [4]; 10 µM 0 | [5]; 10 µM 0 | [6]; 10 µM 0 | [7]; 10 µM 0 | [8]; 10 µM 0 | [9]; 10 µM 0 | [10]; 10 µM 0

N#CCNC(=O)c1ccc(-c2ccnc(Nc3ccc(N4CCOCC4)cc3)n2)cc1 [Momelotinib sulfate]
inactive: [1]; 10 µM 0 | [2]; 10 µM 0 | [3]; 10 µM 0 | [4]; 10 µM 0 | [5]; 10 µM 0 | [6]; 10 µM 0 | [7]; 10 µM 0 | [8]; 10 µM 0 | [9]; 10 µM 0 | [10]; 10 µM 0

Quoted at random: 2 entries already listed, in no set order.
C[C@@H](N)c1ccc(C(=O)Nc2ccnc3[nH]ccc23)cc1
inactive: [1]; 10 µM 0 | [2]; 10 µM 0 | [3]; 10 µM 0 | [4]; 10 µM 0 | [5]; 10 µM 0 | [6]; 10 µM 0 | [7]; 10 µM 0 | [8]; 10 µM 0 | [9]; 10 µM 0 | [10]; 10 µM 0

CCS(=O)(=O)N1CCN(c2ccc(Nc3ncc(C(N)=O)c(NC4CC4)n3)cc2)CC1 [Cerdulatinib]
active: [8]; 10 µM 1
inactive: [1]; 10 µM 0 | [2]; 10 µM 0 | [3]; 10 µM 0 | [4]; 10 µM 0 | [5]; 10 µM 0 | [6]; 10 µM 0 | [7]; 10 µM 0 | [9]; 10 µM 0 | [10]; 10 µM 0

Later entries

CS(=O)(=O)N1CCN(Cc2cc3nc(-c4cccc5[nH]ncc45)nc(N4CCOCC4)c3s2)CC1 [Pictilisib (dimethanesulfonate)]
inactive: [1]; 10 µM 0 | [2]; 10 µM 0 | [3]; 10 µM 0 | [4]; 10 µM 0 | [5]; 10 µM 0 | [6]; 10 µM 0 | [7]; 10 µM 0 | [8]; 10 µM 0 | [9]; 10 µM 0 | [10]; 10 µM 0

C#Cc1cccc(Nc2ncnc3cc4c(cc23)OCCOCCOCCO4)c1 [Icotinib]
inactive: [1]; 10 µM 0 | [2]; 10 µM 0 | [3]; 10 µM 0 | [4]; 10 µM 0 | [5]; 10 µM 0 | [6]; 10 µM 0 | [7]; 10 µM 0 | [8]; 10 µM 0 | [9]; 10 µM 0 | [10]; 10 µM 0

CN(C)C(=O)c1cc2cnc(Nc3ccc(N4CCNCC4)cn3)nc2n1C1CCCC1 [Ribociclib succinate]
inactive: [1]; 10 µM 0 | [2]; 10 µM 0 | [3]; 10 µM 0 | [4]; 10 µM 0 | [5]; 10 µM 0 | [6]; 10 µM 0 | [7]; 10 µM 0 | [8]; 10 µM 0 | [9]; 10 µM 0 | [10]; 10 µM 0

CC(C)(C)n1nc(-c2cccc3ccccc23)c2c(N)ncnc21 [1-Naphthyl PP1 (hydrochloride)]
inactive: [1]; 10 µM 0 | [2]; 10 µM 0 | [3]; 10 µM 0 | [4]; 10 µM 0 | [5]; 10 µM 0 | [6]; 10 µM 0 | [8]; 10 µM 0 | [9]; 10 µM 0 | [10]; 10 µM 0

C#Cc1cccc(Nc2ncnc3cc4c(cc23)OCCOCCOCCO4)c1 [Icotinib (Hydrochloride)]
inactive: [1]; 10 µM 0 | [2]; 10 µM 0 | [3]; 10 µM 0 | [4]; 10 µM 0 | [5]; 10 µM 0 | [6]; 10 µM 0 | [7]; 10 µM 0 | [8]; 10 µM 0 | [9]; 10 µM 0 | [10]; 10 µM 0

C=CC(=O)Nc1cc2c(Nc3ccc(F)c(Cl)c3)ncnc2cc1C#CC(C)(C)N1CCN(C)CC1 [AV-412 (free base)]
active: [8]; 2.5 µM 1
inactive: [1]; 2.5 µM 0 | [2]; 2.5 µM 0 | [3]; 2.5 µM 0 | [4]; 2.5 µM 0 | [5]; 2.5 µM 0 | [6]; 2.5 µM 0 | [7]; 2.5 µM 0 | [9]; 2.5 µM 0 | [10]; 2.5 µM 0

COc1cc2c(cc1OC)-c1c(C)c3ccc(OC)c(OC)c3c[n+]1CC2 [Dehydrocorydaline (chloride)]
inactive: [1]; 10 µM 0 | [2]; 10 µM 0 | [3]; 10 µM 0 | [4]; 10 µM 0 | [5]; 10 µM 0 | [6]; 10 µM 0 | [7]; 10 µM 0 | [8]; 10 µM 0 | [9]; 10 µM 0 | [10]; 10 µM 0

COC(=O)[C@H](CC(C)C)NC(=O)c1ccc(NC[C@@H](N)CS)cc1-c1cccc2ccccc12
inactive: [1]; 10 µM 0 | [2]; 10 µM 0 | [3]; 10 µM 0 | [4]; 10 µM 0 | [5]; 10 µM 0 | [6]; 10 µM 0 | [7]; 10 µM 0 | [8]; 10 µM 0 | [9]; 10 µM 0 | [10]; 10 µM 0

Source: the supplement of paper PMC12823440, “Inhibitors supercharge kinase turnover through native proteolytic circuits” (Nature, 2025)
